Laboratory results: PubChem BioAssay AID1053208 (Peter MacCallum Cancer Centre, 2014)

- Test: 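Genes whose silencing cuts survival of bone tumour cells only with doxorubicin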 (primary screen)
- Cell system: mouse osteosarcoma cells, early-passage culture from an engineered mouse model of fibroblastic bone tumour
- Knock-down reagent: siRNA pool against mouse genes, 40 nM
- Duration: about 120 h (48 h before drug, then 72 h with drug)
- Conditions: doxorubicin 100 nM for 72 h, roughly 30-40% inhibitory dose
- Measured: 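Viability read as ATP luminescence after 72 h of 100 nM doxorubicin or none, duplicate wells averaged, scaled to non-targeting siRNA, then expressed as robust z-scores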
- Reading the numbers: viability z-score with doxorubicin and doxorubicin viability vs non-targeting: higher = more viable cells under doxorubicin; viability z-score without drug: higher = more viable cells with knock-down alone; z-score of drug to no-drug ratio: higher = less drug sensitisation by knock-down
- Active means: 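a pool counts as active when its viability z-score with doxorubicin is -2 or below and its z-score without drug lies between -2 and 2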
In all, the deposit lists about 17,000 reagents; this is an unselected part. 788 of them (4.7%) were called active. 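Calls rest on z-score classes alone; an extra cut-off of viability at most 70% of control was not applied to them.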 Some reagents were tested in more than one well and are listed for each.

gene	combined z-score class	viability z-score with doxorubicin	viability z-score without drug	z-score of drug to no-drug ratio	doxorubicin viability vs non-targeting	call
Cutc (cutC copper transporter)	no change with or without drug	0.45	0.84	0	0.98	inactive
Csnk1a1 (casein kinase 1, alpha 1)	no change with or without drug	0	-0.17	0.22	0.94	inactive
Or8k27 (olfactory receptor family 8 subfamily K member 27)	no change with or without drug	-0.11	0.34	-0.22	0.93	inactive
Zbtb11os1 (zinc finger and BTB domain containing 11, opposite strand 1)	no change with or without drug	-1.35	0.51	-1.57	0.82	inactive
Ano6 (anoctamin 6)	no change with or without drug	1.35	0.84	0.9	1.06	inactive
Cnnm3 (cyclin M3)	no change with or without drug	-1.12	-1.35	-0.11	0.84	inactive
A930037J23RIK	no change with or without drug	-1.12	-0.67	-0.67	0.84	inactive
Tprkb (Tp53rk binding protein)	no change with or without drug	-0.56	-0.17	-0.34	0.89	inactive
Tob1 (transducer of ErbB-2.1)	no change with or without drug	0	-0.17	0.22	0.94	inactive
Pde7a (phosphodiesterase 7A)	no change with or without drug	0	-0.17	0.22	0.94	inactive
Copb2 (COPI coat complex subunit beta 2)	low cell count with and without drug	-6.97	-7.08	-4.27	0.32	inactive
Arid1a (AT-rich interaction domain 1A)	no change with or without drug	-1.57	0.17	-1.69	0.8	inactive
Map2k4 (mitogen-activated protein kinase kinase 4)	no change with or without drug	1.57	1.52	0.67	1.08	inactive
Tom1 (target of myb1 trafficking protein)	no change with or without drug	-0.67	-0.51	-0.22	0.88	inactive
Bcl2a1d (B cell leukemia/lymphoma 2 related protein A1d)	high cell count without drug only	0.9	2.19	-0.45	1.02	inactive
Hmox1 (heme oxygenase 1)	no change with or without drug	-1.46	-0.67	-1.01	0.81	inactive
Or10ak14 (olfactory receptor family 10 subfamily AK member 14)	no change with or without drug	-0.9	0.34	-1.01	0.86	inactive
Snx14 (sorting nexin 14)	no change with or without drug	-0.67	0.17	-0.67	0.88	inactive
Ret (ret proto-oncogene)	no change with or without drug	0	0.84	-0.45	0.94	inactive
Defa29 (defensin, alpha, 29)	no change with or without drug	0.56	1.52	-0.34	0.99	inactive
Npvf (neuropeptide VF precursor)	no change with or without drug	0	-1.18	1.01	0.94	inactive
Dgkg (diacylglycerol kinase, gamma)	no change with or without drug	0.22	0.17	0.22	0.96	inactive
Cyb5r1 (cytochrome b5 reductase 1)	no change with or without drug	0.9	0.84	0.45	1.02	inactive
Gpr65 (G-protein coupled receptor 65)	no change with or without drug	-0.22	-0.17	0	0.92	inactive
Zfp354a (zinc finger protein 354A)	no change with or without drug	0.9	1.01	0.34	1.02	inactive
Golm1 (golgi membrane protein 1)	no change with or without drug	0.34	1.35	-0.45	0.97	inactive
Asic4 (acid-sensing ion channel family member 4)	no change with or without drug	-0.34	0	-0.22	0.91	inactive
Or5b108 (olfactory receptor family 5 subfamily B member 108)	no change with or without drug	-1.12	-0.51	-0.79	0.84	inactive
Or13c3 (olfactory receptor family 13 subfamily C member 3)	no change with or without drug	0.67	-1.18	1.8	1	inactive
Phf2 (PHD finger protein 2)	no change with or without drug	0.67	0.51	0.45	1	inactive
Agtr2 (angiotensin II receptor, type 2)	no change with or without drug	0.34	-0.51	0.79	0.97	inactive
Agtr2 (angiotensin II receptor, type 2)	no change with or without drug	0.11	-0.17	0.34	0.95	inactive
Ccdc7b (coiled-coil domain containing 7B)	no change with or without drug	-0.22	0.84	-0.67	0.92	inactive
Vps4a (vacuolar protein sorting 4A)	no change with or without drug	1.35	1.35	0.56	1.06	inactive
Gm4861 (predicted gene 4861)	no change with or without drug	0.9	0.17	0.9	1.02	inactive
Nupr1 (nuclear protein transcription regulator 1)	low cell count with and without drug	-2.7	-4.05	0.11	0.7	inactive
Nhlh1 (nescient helix loop helix 1)	no change with or without drug	1.35	0.51	1.12	1.06	inactive
Ythdf1 (YTH N6-methyladenosine RNA binding protein 1)	no change with or without drug	-1.35	0.84	-1.8	0.82	inactive
Mxi1 (MAX interactor 1, dimerization protein)	no change with or without drug	0.34	0.84	-0.11	0.97	inactive
Dxo (decapping exoribonuclease)	no change with or without drug	0	0.51	-0.22	0.94	inactive
Il3 (interleukin 3)	high cell count without drug only	1.69	2.19	0.34	1.09	inactive
Ric3 (RIC3 acetylcholine receptor chaperone)	low cell count without drug only	-0.56	-2.19	1.24	0.89	inactive
Zfp868 (zinc finger protein 868)	no change with or without drug	0.67	-0.51	1.24	1	inactive
Azin2 (antizyme inhibitor 2)	no change with or without drug	-1.69	0.34	-1.91	0.79	inactive
Man2b1 (mannosidase 2, alpha B1)	no change with or without drug	0.45	0.84	0	0.98	inactive
Sec24d (SEC24 homolog D, COPII coat complex component)	no change with or without drug	1.46	0.51	1.24	1.07	inactive
Gpr135 (G protein-coupled receptor 135)	no change with or without drug	0.9	1.01	0.34	1.02	inactive
Or8k20 (olfactory receptor family 8 subfamily K member 20)	no change with or without drug	-0.9	-1.85	0.45	0.86	inactive
B230340J04Rik (RIKEN cDNA B230340J04 gene)	no change with or without drug	0.22	0.17	0.22	0.96	inactive
Sf3b5 (splicing factor 3b, subunit 5)	low cell count with doxorubicin only	-3.37	-0.51	-3.15	0.64	active
